Reference: PubChem BioAssay AID652243 (Drosophila RNAi Screening Center, 2013)
The deposit covers about 24,000 reagents; this is an unselected part of those with a known target gene and a result. Over the whole deposit, 246 (1%) are marked active. 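Plates not normalised; calls are printed but the firefly/Renilla ratio behind them is not deposited; fold cut for lowering reported inconsistently.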 Raw values are not corrected between plates. The numbers tell different reagents against one gene apart. A plus sign joins genes that one reagent is predicted to hit. Not given: the amount of reagent.

Purpose: 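Fly genes required for human androgen receptor driven transcription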 (primary screen)
Cell system: Drosophila S2R+ cells
Reagent: long dsRNA against Drosophila genes
Timing: 72 h (48 h, then 24 h hormone)
Treatment: synthetic androgen R1881 at 10 nM for 24 h
Detection: 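Per-well raw luminescence of the androgen-driven firefly reporter and of the Renilla control, two replicates each, without normalisation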
Scale: firefly reporter light: higher = more light from androgen-responsive reporter; Renilla control light: higher = more constitutive control signal (cell number, transfection)
Hit rule: 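Hit when the log firefly-to-Renilla ratio dropped or increased by a fixed fold versus the mean of GFP or LacZ controls across duplicate plates; lowering cut given as 1.5 and as 3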
Calls: active = hit: reporter lowered or raised; inactive = no hit

The opening 5 records, to show the layout:
| firefly reporter light, replicate 1 | firefly reporter light, replicate 2 | Renilla control light, replicate 1 | Renilla control light, replicate 2 | call | target gene | reagent |
| --- | --- | --- | --- | --- | --- | --- |
| 1.17e5 | 1.07e5 | 7.25e5 | 6.09e5 | inactive | CG8671 | 1 |
| 1.02e5 | 81129 | 9.31e5 | 5.18e5 | inactive | CG8671 | 2 |
| 3.96e5 | 2.99e5 | 6.79e5 | 6.12e5 | inactive | CG8671 | 3 |
| 95592 | 64454 | 1.66e5 | 1.96e5 | inactive | Efa6 (Exchange factor for Arf 6) | 1 |
| 78413 | 65084 | 1.73e6 | 1.42e6 | active | Efa6 (Exchange factor for Arf 6) | 2 |

The list itself, from the start:
| firefly reporter light, replicate 1 | firefly reporter light, replicate 2 | Renilla control light, replicate 1 | Renilla control light, replicate 2 | call | target gene | reagent |
| --- | --- | --- | --- | --- | --- | --- |
| 1.17e5 | 1.07e5 | 7.25e5 | 6.09e5 | inactive | CG8671 | 1 |
| 1.02e5 | 81129 | 9.31e5 | 5.18e5 | inactive | CG8671 | 2 |
| 3.96e5 | 2.99e5 | 6.79e5 | 6.12e5 | inactive | CG8671 | 3 |
| 95592 | 64454 | 1.66e5 | 1.96e5 | inactive | Efa6 (Exchange factor for Arf 6) | 1 |
| 78413 | 65084 | 1.73e6 | 1.42e6 | active | Efa6 (Exchange factor for Arf 6) | 2 |
| 6.60e5 | 4.69e5 | 1.14e6 | 1.19e6 | inactive | Efa6 (Exchange factor for Arf 6) | 3 |
| 77627 | 73468 | 1.40e6 | 1.48e6 | inactive | CG13901 | 1 |
| 1.74e6 | 1.20e6 | 2.60e6 | 1.36e6 | inactive | sky (skywalker) | 1 |
| 1.22e6 | 9.13e5 | 3.35e6 | 2.77e6 | inactive | sky (skywalker) | 2 |
| 2.85e5 | 3.16e5 | 2.45e6 | 2.60e6 | inactive | sky (skywalker) | 3 |
| 58063 | 1.17e5 | 8.88e5 | 1.39e6 | inactive | Oseg2 (Outer segment 2) | 1 |
| 85442 | 81232 | 1.65e6 | 1.41e6 | inactive | 5-HT2B (5-hydroxytryptamine (serotonin) receptor 2B) | 1 |
| 1.29e5 | 1.30e5 | 2.12e6 | 2.14e6 | inactive | 5-HT2B (5-hydroxytryptamine (serotonin) receptor 2B) | 2 |
| 1.61e6 | 1.53e6 | 1.05e6 | 9.61e5 | inactive | 5-HT2B (5-hydroxytryptamine (serotonin) receptor 2B) | 3 |
| 3.40e5 | 4.32e5 | 3.36e6 | 3.63e6 | inactive | CG8944 | 1 |
| 5.85e5 | 4.52e5 | 1.36e6 | 1.33e6 | inactive | CG8944 | 2 |
| 1.37e6 | 1.17e6 | 1.08e6 | 9.54e5 | inactive | CG8944 | 3 |
| 2.37e5 | 2.57e5 | 1.95e6 | 2.09e6 | inactive | RpL13 (Ribosomal protein L13) | 1 |
| 3.61e5 | 4.50e5 | 3.88e6 | 3.79e6 | inactive | CG10347 | 1 |
| 65342 | 77386 | 7.41e5 | 8.89e5 | inactive | CG13870 | 1 |
| 70126 | 57870 | 4.44e5 | 3.95e5 | inactive | PolH (DNA polymerase eta) | 1 |
| 1.06e6 | 1.05e6 | 1.39e6 | 1.38e6 | inactive | kermit | 1 |
| 3.99e5 | 3.25e5 | 7.45e5 | 6.24e5 | inactive | kermit | 2 |
| 56453 | 75505 | 6.11e5 | 4.21e5 | inactive | CR40450 + CG32767 | 1 |
| 7.02e5 | 6.03e5 | 1.85e6 | 1.91e6 | inactive | CG34224 | 1 |
| 1.44e5 | 1.02e5 | 1.11e6 | 1.13e6 | inactive | CG9410 + CG15908 | 1 |
| 2.98e5 | 3.72e5 | 2.72e6 | 2.45e6 | inactive | CG9410 + CG15908 | 2 |
| 4.07e5 | 3.38e5 | 8.93e5 | 7.76e5 | inactive | CG9410 + CG15908 | 3 |
| 3.24e5 | 2.57e5 | 2.53e6 | 2.55e6 | inactive | TwdlM (TweedleM) | 1 |
| 1.90e5 | 1.94e5 | 3.71e6 | 3.29e6 | inactive | CG8516 | 1 |
| 9.74e5 | 1.18e6 | 9.24e5 | 9.67e5 | inactive | hzg (herzog) | 1 |
| 7.62e5 | 6.23e5 | 1.71e6 | 1.49e6 | inactive | hzg (herzog) | 2 |
| 1.09e5 | 1.19e5 | 7.76e5 | 8.07e5 | inactive | CG8837 | 1 |
| 3.52e5 | 4.04e5 | 5.63e5 | 5.63e5 | inactive | CG8837 | 2 |
| 79913 | 80103 | 6.09e5 | 9.24e5 | inactive | mRpS2 (mitochondrial ribosomal protein S2) | 1 |
| 1.39e6 | 7.07e5 | 1.86e6 | 1.06e6 | inactive | CG5790 | 1 |
| 3.20e5 | 3.46e5 | 6.76e5 | 7.68e5 | inactive | CG5790 | 2 |
| – | – | – | – | inactive | CG5790 | 3 |
| 2.18e5 | 2.01e5 | 4.86e5 | 4.21e5 | inactive | Gr39b (Gustatory receptor 39b) | 1 |
| 2.86e5 | 3.63e5 | 7.20e5 | 6.53e5 | inactive | Gr39b (Gustatory receptor 39b) | 2 |
| 1.77e5 | 1.58e5 | 1.81e6 | 1.86e6 | inactive | Usp32 (Ubiquitin specific protease 32) | 1 |
| 3.61e5 | 1.91e5 | 1.99e6 | 2.22e6 | inactive | CG10459 | 1 |
| 9.94e5 | 8.30e5 | 2.65e6 | 1.74e6 | inactive | CG10459 | 2 |
| 6.73e5 | 7.35e5 | 1.78e6 | 1.82e6 | inactive | CG9577 | 1 |
| 2.25e5 | 1.76e5 | 5.70e5 | 5.57e5 | inactive | CG9577 | 2 |
| 2.69e5 | 1.53e5 | 1.98e6 | 1.68e6 | inactive | Tret1-1 (Trehalose transporter 1-1) | 1 |
| 2.00e5 | 1.43e5 | 1.00e6 | 9.31e5 | inactive | Tret1-1 (Trehalose transporter 1-1) | 2 |
| 6.86e5 | 8.75e5 | 9.45e5 | 9.77e5 | inactive | Tret1-1 (Trehalose transporter 1-1) | 3 |
| 52803 | 38643 | 4.43e5 | 2.18e5 | inactive | CG11109 | 1 |
| 4.44e5 | 3.56e5 | 2.69e6 | 2.73e6 | inactive | CG42299 + CG42300 | 1 |
| 2.91e5 | 3.61e5 | 3.04e6 | 2.83e6 | inactive | CG42299 + CG42300 | 2 |
| 2.59e5 | 1.77e5 | 2.50e6 | 1.89e6 | inactive | AIMP1 (aaRS-interacting multifunctional protein 1) | 1 |
| 2.28e5 | 2.52e5 | 6.92e5 | 5.37e5 | inactive | AIMP1 (aaRS-interacting multifunctional protein 1) | 2 |
| 64529 | 46256 | 2.04e5 | 2.14e5 | inactive | Bsg (Basigin) | 1 |
| 3.18e5 | 2.39e5 | 3.70e5 | 2.10e5 | inactive | Bsg (Basigin) | 2 |
| 9.54e5 | 1.07e6 | 2.25e6 | 2.59e6 | inactive | alpha-Spec (alpha Spectrin) | 1 |
| 83210 | 90091 | 9.25e5 | 1.15e6 | inactive | srw (shrew) | 1 |
| 39948 | 47067 | 1.08e6 | 1.21e6 | active | CG34347 | 1 |
| 6.13e5 | 7.45e5 | 1.66e6 | 2.19e6 | inactive | CG34347 | 2 |
| 9.80e5 | 8.67e5 | 1.24e6 | 1.15e6 | inactive | CG34347 | 3 |
